Data source: PubChem BioAssay AID686938 (Drosophila RNAi Screening Center, 2013)

Aim: 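Knock-downs reducing store-operated calcium influx in Drosophila cells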 (primary screen)
Cell system: Drosophila S2R+ cells
Reagent: long dsRNA against Drosophila genes, about 0.25 µg dsRNA per well, roughly 10,000 cells
Timing: 5 days of knock-down before the calcium assay
Conditions: thapsigargin (SERCA pump blocker) to empty calcium stores; entry signal taken 4 min after adding it
Detection: 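Duplicate raw fluo-4 intensities per well from a plate reader, at rest and four minutes after thapsigargin emptied calcium stores; entry-to-rest ratio filled for only some wells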
Reading the numbers: calcium entry signal: higher = stronger calcium signal after store depletion; resting calcium signal: higher = higher resting calcium signal
Units: calcium entry signal in fluorescence units; resting calcium signal in fluorescence units
Hit rule: 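Called when the plate z-score of the entry-to-rest ratio, mean of duplicates, falls below −3; wells with low overall dye signal (Fmax z below −2) or more than five off-targets excluded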
Meaning of the calls: active = strongly reduced calcium entry; inactive = no strong reduction
The deposit covers about 23,000 reagents; shown is a random part of those with a known target gene and a result. In the full data, 75 (0.33%) are marked active. 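Raw plate signals without normalisation; calls rest on plate z-scores that were not deposited; ratio present for only 364 wells.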 Not stated in the record: the dose of the treatment.

Which result is listed for Adk3 (Adenosine kinase 3) [DRSC05917]?
calcium entry signal, replicate 1: 3.67e7; resting calcium signal, replicate 1: 1.96e7; activity call: inactive

Which result is listed for vir-1 (virus-induced RNA 1) [DRSC02501]?
calcium entry signal, replicate 1: 4.83e7; calcium entry signal, replicate 2: 2.73e7; resting calcium signal, replicate 1: 1.99e7; resting calcium signal, replicate 2: 1.29e7; activity call: inactive

For vir-1 (virus-induced RNA 1) [DRSC02863], what does the deposit list?
calcium entry signal, replicate 1: 4.54e7; calcium entry signal, replicate 2: 2.91e7; resting calcium signal, replicate 1: 1.95e7; resting calcium signal, replicate 2: 1.44e7; activity call: inactive

What did the screen give for CG14562 [DRSC11723]?
calcium entry signal, replicate 1: 3.37e7; calcium entry signal, replicate 2: 5.61e7; resting calcium signal, replicate 1: 1.52e7; resting calcium signal, replicate 2: 2.48e7; activity call: inactive

With CG33110 [DRSC14694], how do the results read?
calcium entry signal, replicate 1: 2.97e7; calcium entry signal, replicate 2: 4.11e7; resting calcium signal, replicate 1: 1.66e7; resting calcium signal, replicate 2: 1.87e7; activity call: inactive

With CG33110 [DRSC16137], what was measured?
calcium entry signal, replicate 1: 3.75e7; calcium entry signal, replicate 2: 6.28e7; resting calcium signal, replicate 1: 1.81e7; resting calcium signal, replicate 2: 2.13e7; activity call: inactive

With nw (narrow) [DRSC06451], how do the results read?
calcium entry signal, replicate 1: 5.48e7; calcium entry signal, replicate 2: 4.59e7; resting calcium signal, replicate 1: 2.33e7; resting calcium signal, replicate 2: 2.22e7; activity call: inactive

For nw (narrow) [DRSC06749], what does the deposit list?
calcium entry signal, replicate 1: 2.96e7; calcium entry signal, replicate 2: 2.84e7; resting calcium signal, replicate 1: 1.31e7; resting calcium signal, replicate 2: 1.46e7; activity call: inactive

What did the screen give for nw (narrow) [DRSC06896]?
calcium entry signal, replicate 1: 4.96e7; calcium entry signal, replicate 2: 4.84e7; resting calcium signal, replicate 1: 2.16e7; resting calcium signal, replicate 2: 2.22e7; activity call: inactive

What is on record for Gcn2 [DRSC16678]?
calcium entry signal, replicate 1: 1.82e7; calcium entry signal, replicate 2: 2.45e7; resting calcium signal, replicate 1: 9.67e6; resting calcium signal, replicate 2: 1.39e7; activity call: inactive

For mfas (midline fasciclin) [DRSC16997], how do the results read?
calcium entry signal, replicate 1: 3.13e7; calcium entry signal, replicate 2: 4.01e7; resting calcium signal, replicate 1: 1.31e7; resting calcium signal, replicate 2: 1.86e7; activity call: inactive

With stumps [DRSC13045], what was measured?
calcium entry signal, replicate 1: 2.81e7; calcium entry signal, replicate 2: 3.65e7; resting calcium signal, replicate 1: 1.42e7; resting calcium signal, replicate 2: 1.66e7; activity call: inactive

What is on record for stumps [DRSC15332]?
calcium entry signal, replicate 1: 3.03e7; calcium entry signal, replicate 2: 5.76e7; resting calcium signal, replicate 1: 1.50e7; resting calcium signal, replicate 2: 6.42e7; activity call: inactive

What is on record for stumps [DRSC17073]?
calcium entry signal, replicate 1: 2.71e7; calcium entry signal, replicate 2: 4.67e7; resting calcium signal, replicate 1: 1.30e7; resting calcium signal, replicate 2: 1.99e7; activity call: inactive

What is on record for CG14989 [DRSC08448]?
calcium entry signal, replicate 1: 4.48e7; calcium entry signal, replicate 2: 2.81e7; resting calcium signal, replicate 1: 3.10e7; resting calcium signal, replicate 2: 1.33e7; activity call: inactive

With fng (fringe) [DRSC11455], what does the deposit list?
calcium entry signal, replicate 1: 5.69e7; calcium entry signal, replicate 2: 3.69e7; resting calcium signal, replicate 1: 3.17e7; resting calcium signal, replicate 2: 1.86e7; activity call: inactive

What is on record for fng (fringe) [DRSC11887]?
calcium entry signal, replicate 1: 4.11e7; calcium entry signal, replicate 2: 4.43e7; resting calcium signal, replicate 1: 1.87e7; resting calcium signal, replicate 2: 3.13e7; activity call: inactive

For fng (fringe) [DRSC21935], how do the results read?
calcium entry signal, replicate 1: 3.00e7; calcium entry signal, replicate 2: 5.36e7; resting calcium signal, replicate 1: 1.48e7; resting calcium signal, replicate 2: 2.79e7; activity call: inactive

What is on record for insc (inscuteable) [DRSC04695]?
calcium entry signal, replicate 1: 5.28e7; calcium entry signal, replicate 2: 5.23e7; resting calcium signal, replicate 1: 2.57e7; resting calcium signal, replicate 2: 2.37e7; activity call: inactive

For Atac1 (Ada2a-containing complex component 1) [DRSC03155], what does the deposit list?
calcium entry signal, replicate 1: 3.81e7; calcium entry signal, replicate 2: 3.78e7; resting calcium signal, replicate 1: 1.67e7; resting calcium signal, replicate 2: 1.75e7; activity call: inactive

What did the screen give for pch2 (pachytene checkpoint 2) [DRSC14368]?
calcium entry signal, replicate 1: 3.98e7; calcium entry signal, replicate 2: 2.90e7; resting calcium signal, replicate 1: 1.98e7; resting calcium signal, replicate 2: 1.45e7; activity call: inactive

Which result is listed for CG33080 [DRSC18080]?
calcium entry signal, replicate 1: 3.44e7; calcium entry signal, replicate 2: 5.43e7; resting calcium signal, replicate 1: 1.71e7; resting calcium signal, replicate 2: 2.33e7; activity call: inactive

For CG33080 [DRSC18081], what was measured?
calcium entry signal, replicate 1: 3.38e7; calcium entry signal, replicate 2: 4.42e7; resting calcium signal, replicate 1: 1.61e7; resting calcium signal, replicate 2: 2.04e7; activity call: inactive

How did the screen score CG33080 [DRSC18285]?
calcium entry signal, replicate 1: 3.81e7; calcium entry signal, replicate 2: 3.67e7; resting calcium signal, replicate 1: 1.70e7; resting calcium signal, replicate 2: 1.57e7; activity call: inactive

What did the screen give for dsd (distracted) [DRSC13829]?
calcium entry signal, replicate 1: 4.07e7; calcium entry signal, replicate 2: 2.92e7; resting calcium signal, replicate 1: 1.55e7; resting calcium signal, replicate 2: 1.41e7; activity call: inactive

With dsd (distracted) [DRSC15850], how do the results read?
calcium entry signal, replicate 1: 4.50e7; calcium entry signal, replicate 2: 5.21e7; resting calcium signal, replicate 1: 2.11e7; resting calcium signal, replicate 2: 2.29e7; activity call: inactive

With Vps4 (Vacuolar protein sorting 4) [DRSC19338], how do the results read?
calcium entry signal, replicate 1: 3.24e7; calcium entry signal, replicate 2: 3.99e7; resting calcium signal, replicate 1: 2.39e7; resting calcium signal, replicate 2: 2.51e7; activity call: inactive

Laid out differently: entries from further up
{"Gene": "insc (inscuteable)", "dsRNA": "DRSC04695", "calcium entry signal, replicate 1": 5.28e7, "calcium entry signal, replicate 2": 5.23e7, "resting calcium signal, replicate 1": 2.57e7, "resting calcium signal, replicate 2": 2.37e7, "activity call": "inactive"}
{"Gene": "Atac1 (Ada2a-containing complex component 1)", "dsRNA": "DRSC03155", "calcium entry signal, replicate 1": 3.81e7, "calcium entry signal, replicate 2": 3.78e7, "resting calcium signal, replicate 1": 1.67e7, "resting calcium signal, replicate 2": 1.75e7, "activity call": "inactive"}
{"Gene": "pch2 (pachytene checkpoint 2)", "dsRNA": "DRSC14368", "calcium entry signal, replicate 1": 3.98e7, "calcium entry signal, replicate 2": 2.90e7, "resting calcium signal, replicate 1": 1.98e7, "resting calcium signal, replicate 2": 1.45e7, "activity call": "inactive"}
{"Gene": "CG33080", "dsRNA": "DRSC18080", "calcium entry signal, replicate 1": 3.44e7, "calcium entry signal, replicate 2": 5.43e7, "resting calcium signal, replicate 1": 1.71e7, "resting calcium signal, replicate 2": 2.33e7, "activity call": "inactive"}
